Data source: PubChem BioAssay AID1259308 (NCATS, 2017)
Test: 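Candidate targets for better recombinant protein yield in mammalian cells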 (primary screen). Cells: human HEK293 embryonic kidney cells stably expressing firefly luciferase (HEK-CMV-Luc2-Hygro). Reagent: single siRNA against human genes, 0.8 pmol siRNA per well. Time to read-out: 72 h. Detection: 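Reporter luminescence and viable-cell signal on separate replicate plates, given as percent of non-targeting control and median/MAD z-scores, plus per-cell luciferase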. Direction: total luciferase, z-score: higher = more reporter protein produced. Hit rule: 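Active when the median/MAD z-score for overall luciferase is greater than 3; a gene was taken forward for validation with new siRNAs if at least two of its three siRNAs passed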. Calls: active = raised luciferase; inactive = no rise.
In all, the deposit lists about 59,000 reagents; shown is a part drawn at random. Of all reagents, about 1,510 (2.6%) were called active. 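Calls use total luciferase alone and ignore viability, so some active siRNAs may act by altering cell number.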 The numbers tell different reagents against one gene apart. Not all columns of the deposit are shown.

RS1 (retinoschisin 1) #1 — total luciferase, z-score = 0.557; Call = inactive
RS1 (retinoschisin 1) #2 — total luciferase, z-score = -0.142; Call = inactive
RS1 (retinoschisin 1) #3 — total luciferase, z-score = 1.29; Call = inactive
MYO18A (myosin XVIIIA) #1 — total luciferase, z-score = -3.02; Call = inactive
MYO18A (myosin XVIIIA) #2 — total luciferase, z-score = 1.36; Call = inactive
MYO18A (myosin XVIIIA) #3 — total luciferase, z-score = 0.5; Call = inactive

Continued, starting with the last 2 of the part before.
MYO18A (myosin XVIIIA) #2 — total luciferase, z-score = 1.36; Call = inactive
MYO18A (myosin XVIIIA) #3 — total luciferase, z-score = 0.5; Call = inactive
PP2D1 (protein phosphatase 2C like domain containing 1) #1 — total luciferase, z-score = -0.531; Call = inactive
PP2D1 (protein phosphatase 2C like domain containing 1) #2 — total luciferase, z-score = 0.922; Call = inactive
PP2D1 (protein phosphatase 2C like domain containing 1) #3 — total luciferase, z-score = 0.803; Call = inactive
CCNT1 (cyclin T1) #1 — total luciferase, z-score = 1.55; Call = inactive
CCNT1 (cyclin T1) #2 — total luciferase, z-score = 0.157; Call = inactive
CCNT1 (cyclin T1) #3 — total luciferase, z-score = -0.138; Call = inactive
